# Test results reported in patent US20250381277A1, “COMPOSITIONS AND METHODS FOR TREATMENT OF NEUROLOGICAL DISORDERS” (Dana-Farber Cancer Institute, Inc., priority 2022, published 2025).
# Some entries share one result that the patent states for a list of compounds.
# System: CD11c^− microglia
# Test: Apoptotic neuron (AN) uptake and CD11c^- to CD11c^+ differentiation of microglia with αVβ3 / TAM receptor inhibitors
# Assay type: cell-based, mouse
# Conditions: P5 B6-WT CD11c^− microglia, 72 h with ANs; cilengitide 10 μM, LDC1267 1 μM
# Source text: (A) Brain single cell suspensions of 9-mo old WT mice were generated for validation of microglial CD11c expression by flow cytometry. We first gate on CD11b^+ cells from single/live cells followed by subsequent gating of CD11b^+CD45^low populations as potential microglia. […] In contrast, CCR2 but not Tmem 119 expression is detected in the CD11b^+CD45^high fraction, i.e., putative macrophage populations. Analysis of the CD11b^+CD45^low microglial population using FMO negative controls for these FACS plots confirms specificity. […] (B) The proportion of CD11c^+ microglia in C57BL/6 (B6) mice during early development and normal aging (n=3) was determined by flow cytometry analysis. CD11c^+ microglia were initially present at late embryonic day (E18.5), peaked at early postanal day (P5) and gradually declined to marginal levels in young adulthood (3-mon) followed by re-emergence and further expansion during aging. (C) CD11c^− microglia were isolated from P5 B6-WT mice by negative section with anti-CD11c magnetic beads (purity >99%) followed by co-incubation×72 h in the presence or absence of pHrodo fluorescent dye-labeled apoptotic neurons (ANs) at a 1:1 ratio. After 72 h incubation, 23% of total CD11c^− microglia had ingested ANs (AN^+), of which 77.4% of these AN^+ microglia were CD11c^+. […] Expression of CD11c was assessed in CD86^+ or MHC II^+ activated microglia. […]
smiles,measurement,value
CC(C)[C@H]1C(=O)N[C@@H](CCCN=C(N)N)C(=O)NCC(=O)N[C@@H](CC(=O)O)C(=O)N[C@H](Cc2ccccc2)C(=O)N1C [Cilengitide],reduction of acquisition of a CD11c^+ phenotype by CD11c^− progenitors,50-75%
